Assay results: PubChem BioAssay AID493014 (National Center for Advancing Translational Sciences (NCATS), 2011)
The list shows a part of the results. Shown are side measurements of this screen, not its main read-out; they come without a call. Most of these compounds were active or inconclusive in the main read-out, so they are no random draw. The note in brackets gives the kind of curve behind each potency; many fits are weak.

assay: qHTS Assay to Find Inhibitors of Chronic Active B-Cell Receptor Signaling; details: ABC-DLBCL IkBa-CBG/CBR reporter, luminescence ratio (green luciferase fused to IkBa over red control in TMD8 lymphoma cells), 4 h; measured here: CBR red luminescence, cell number
In short: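 Doxycycline induced both beetle luciferases in TMD8 lymphoma cells; IKK-driven degradation limits the IkappaBalpha-fused green signal, while red luminescence normalises for cell number and nonspecific effects. Compounds tested up to 46 uM, 4 hrs.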

| Compound | AC50 |
| --- | --- |
| COc1ccc(CNC(=O)c2cc3c(=O)n4ccccc4nc3n(CC3CCCO3)c2=N)cc1 (stereo unspecified) | 0.00651 µM [rising, full curve, poor fit] |
| CN(C)c1cc2c(cc1NS(=O)(=O)c1ccccc1)n(C)c(=O)n2C | 35.5 µM [rising, single point] |
| CCNCc1cc(OCC)c(OCC(=O)NCCc2ccccc2)cc1Cl | 4.47 µM [falling, full curve] |
| Cc1cccc2sc(N(CCCN(C)C)C(=O)c3ccco3)nc12 | 28.2 µM [falling, single point] |
| CCN(CC)C(=O)Cn1c(=O)n(CCC(=O)Nc2ccc(F)cc2)c(=O)c2sccc21 | 3.98 µM [falling, partial curve, poor fit] |
| O=CN1Cc2[nH]c3ccccc3c2N(c2ccc(Cl)cc2)C1=O | 4.47 µM [falling, partial curve, poor fit] |
| O=C(/C=C/c1cccc(Oc2ccccc2)c1)N1CCOCC1 | 35.5 µM [rising, single point] |
| O=C(Cn1ccc([N+](=O)[O-])n1)c1ccccc1 | 1.26 µM [rising, full curve] |
| O=C(Nc1nnc(SCc2ccc(F)cc2)s1)c1ccc2ncsc2c1 | 8.2 µM [falling, partial curve] |
| COc1ccc(C(=O)Nc2ccc(OCC(F)(F)C(F)F)c(C(F)(F)F)c2)cc1OC | 17.8 µM [falling, single point] |
| CSC1=C(C#N)C2(CCCC2)C(C#N)=C(N)N1 | 0.562 µM [falling, full curve, poor fit] |
| COc1ccc(C(=O)Nc2nc3c(s2)CCCC3)cc1S(=O)(=O)N1CCCc2ccccc21 | 10.3 µM [falling, partial curve] |
| COc1ccc(-c2nn(-c3ccccc3)cc2C(=O)NC2CC2)cc1 | 6.51 µM [rising, partial curve] |
| COc1ccc(C(=O)O)cc1NC(=S)NC(=O)CSc1ccc(Cl)cc1 | 7.94 µM [falling, partial curve, poor fit] |
| CCN(CC)CCN(C(=O)c1ccc(S(=O)(=O)N(C)C2CCCCC2)cc1)c1nc2c(C)cccc2s1 | 11.2 µM [falling, partial curve, poor fit] |
| C#CCOCCOCCOCCNc1nc(N2CCN(C(=O)[C@H]([C@@H](C)CC)n3cc([C@@H](N)Cc4ccc(O)cc4)nn3)CC2)nc(N2CCN(C(=O)[C@H](Cc3ccc(O)cc3)n3cc([C@@H](N)C(C)CC)nn3)CC2)n1 (stereo partly specified) | 1.12 µM [rising, partial curve, poor fit] |

Some of these compounds in order of number of heavy atoms, descending:

| Compound | AC50 |
| --- | --- |
| COc1ccc(C(=O)Nc2ccc(OCC(F)(F)C(F)F)c(C(F)(F)F)c2)cc1OC | 17.8 µM [falling, single point] |
| CCNCc1cc(OCC)c(OCC(=O)NCCc2ccccc2)cc1Cl | 4.47 µM [falling, full curve] |
| CSC1=C(C#N)C2(CCCC2)C(C#N)=C(N)N1 | 0.562 µM [falling, full curve, poor fit] |
